Test results as given in patent US20250120967A1, “TYROSINE KINASES INHIBITORS AND USES THEREOF” (GREAT NOVEL THERAPEUTICS BIOTECH & MEDICALS CORPORATION, priority 2023, published 2025).
For at least one compound, name, drawing or mass did not settle the structure.

System: FYN
Test: Tyrosine kinase inhibition assay
Assay type: biochemical
Details: single concentration 1.0 μM
Description: Tyrosine kinase inhibition assays were performed at ThermoFisher Life Technologies (Madison, WI, USA) using standard protocols (SelectScreen Biochemical Profiling Service, Thermo Fisher Scientific). ATP concentrations used were at the apparent Km. Test compounds were screened in 1% dimethylsulffoxide (DMSO) (final concentration) in the well. For 10-point titrations, 3-fold serial dilutions were conducted from the starting concentration of […]. All Peptide/Kinase Mixtures were diluted to a 2× working concentration in the appropriate Kinase Buffer. All ATP Solutions were diluted to a 4× working concentration in Kinase Buffer (50 mM HEPES pH 7.5, 0.01% BRIJ-35, 10 mM MgCl2, 1 mM EGTA). The apparent ATP Km was previously determined using a Z′-LYTE assay. The Development Reagent was diluted in Development Buffer.
The inhibition activities of compounds were determined in biochemical assays using single concentration (1.0 μM) measurements. The results were provided as percent inhibition values. A compound displaying a percent inhibition value of greater 80% was defined as a hit. 99 different tyrosine kinases were used.

## COc1cc2nccc(Oc3ccc(NC(=O)C4(C(=O)Nc5ccc(F)cc5)CC4)cc3)c2cc1OC [Cabozantinib, reference compound]
  percent inhibition: 51%
